From publication PMC4230938, “A High-Yield Co-Expression System for the Purification of an Intact Drs2p-Cdc50p Lipid Flippase Complex, Critically Dependent on and Stabilized by Phosphatidylinositol-4-Phosphate” (PLoS ONE, 2014)
No constants are given. Whether binding was seen depends on the method and setting. Binding seen in cells or lysates may run through a third protein. Some entries that bind do so weakly or less than the wild type. Where a sequence is shown, tags or fusion partners need not be part of it.

Assays:
Test in all cases: pull-down; Bad-tagged Drs2p from DDM-solubilized yeast P3 membranes held on streptavidin-Sepharose, 2 h at 4°C, SSR buffer (50 mM Mops-Tris pH 7, 100 mM KCl, 20% glycerol, 5 mM MgCl2), washes with 0.5 mg/mL DDM and 0.025 mg/mL POPS; Histidine probe blot of the resin, Coomassie gel of the TEV eluate
[1] = target: T1, Drs2p^D560N variant (N-terminally Bad-tagged) (S. cerevisiae) (UniProt P39524)
T1 sequence (chain, biotin on the Bad tag): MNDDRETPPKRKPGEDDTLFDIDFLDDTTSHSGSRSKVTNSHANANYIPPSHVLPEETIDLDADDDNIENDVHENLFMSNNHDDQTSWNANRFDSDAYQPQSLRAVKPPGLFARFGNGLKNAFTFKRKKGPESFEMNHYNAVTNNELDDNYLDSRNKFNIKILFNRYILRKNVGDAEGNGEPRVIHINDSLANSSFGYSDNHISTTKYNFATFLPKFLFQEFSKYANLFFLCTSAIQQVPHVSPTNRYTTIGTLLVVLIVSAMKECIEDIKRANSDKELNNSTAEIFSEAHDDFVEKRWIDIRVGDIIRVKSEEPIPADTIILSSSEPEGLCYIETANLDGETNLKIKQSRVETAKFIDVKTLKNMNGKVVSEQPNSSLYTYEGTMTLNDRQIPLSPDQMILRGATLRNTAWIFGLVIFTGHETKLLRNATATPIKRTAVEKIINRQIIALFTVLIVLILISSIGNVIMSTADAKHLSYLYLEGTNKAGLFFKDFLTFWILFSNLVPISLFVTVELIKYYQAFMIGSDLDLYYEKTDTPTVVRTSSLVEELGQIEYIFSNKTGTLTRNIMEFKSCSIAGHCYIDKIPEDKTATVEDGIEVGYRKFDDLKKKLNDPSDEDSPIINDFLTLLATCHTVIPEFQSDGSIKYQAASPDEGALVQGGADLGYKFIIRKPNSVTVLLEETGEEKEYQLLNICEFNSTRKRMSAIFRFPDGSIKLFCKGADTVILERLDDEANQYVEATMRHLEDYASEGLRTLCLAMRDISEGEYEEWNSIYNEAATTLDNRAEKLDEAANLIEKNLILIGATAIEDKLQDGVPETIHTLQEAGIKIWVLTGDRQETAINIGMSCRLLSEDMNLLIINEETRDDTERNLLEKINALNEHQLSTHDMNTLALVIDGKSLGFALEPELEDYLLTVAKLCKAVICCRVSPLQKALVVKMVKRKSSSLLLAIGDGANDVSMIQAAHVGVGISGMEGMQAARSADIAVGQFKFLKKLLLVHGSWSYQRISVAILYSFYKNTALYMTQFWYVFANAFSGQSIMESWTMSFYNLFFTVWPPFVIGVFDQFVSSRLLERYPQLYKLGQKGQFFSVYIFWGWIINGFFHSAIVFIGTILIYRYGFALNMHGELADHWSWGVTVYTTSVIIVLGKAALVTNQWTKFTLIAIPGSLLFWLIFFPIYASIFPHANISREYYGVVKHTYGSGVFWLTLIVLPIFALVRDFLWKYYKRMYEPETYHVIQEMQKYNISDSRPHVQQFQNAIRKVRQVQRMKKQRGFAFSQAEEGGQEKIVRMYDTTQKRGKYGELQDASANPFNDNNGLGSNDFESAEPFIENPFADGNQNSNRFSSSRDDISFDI

[2] = target: T2, Drs2p^E342Q variant (N-terminally Bad-tagged) (S. cerevisiae) (UniProt P39524)
T2 sequence (chain, biotin on the Bad tag): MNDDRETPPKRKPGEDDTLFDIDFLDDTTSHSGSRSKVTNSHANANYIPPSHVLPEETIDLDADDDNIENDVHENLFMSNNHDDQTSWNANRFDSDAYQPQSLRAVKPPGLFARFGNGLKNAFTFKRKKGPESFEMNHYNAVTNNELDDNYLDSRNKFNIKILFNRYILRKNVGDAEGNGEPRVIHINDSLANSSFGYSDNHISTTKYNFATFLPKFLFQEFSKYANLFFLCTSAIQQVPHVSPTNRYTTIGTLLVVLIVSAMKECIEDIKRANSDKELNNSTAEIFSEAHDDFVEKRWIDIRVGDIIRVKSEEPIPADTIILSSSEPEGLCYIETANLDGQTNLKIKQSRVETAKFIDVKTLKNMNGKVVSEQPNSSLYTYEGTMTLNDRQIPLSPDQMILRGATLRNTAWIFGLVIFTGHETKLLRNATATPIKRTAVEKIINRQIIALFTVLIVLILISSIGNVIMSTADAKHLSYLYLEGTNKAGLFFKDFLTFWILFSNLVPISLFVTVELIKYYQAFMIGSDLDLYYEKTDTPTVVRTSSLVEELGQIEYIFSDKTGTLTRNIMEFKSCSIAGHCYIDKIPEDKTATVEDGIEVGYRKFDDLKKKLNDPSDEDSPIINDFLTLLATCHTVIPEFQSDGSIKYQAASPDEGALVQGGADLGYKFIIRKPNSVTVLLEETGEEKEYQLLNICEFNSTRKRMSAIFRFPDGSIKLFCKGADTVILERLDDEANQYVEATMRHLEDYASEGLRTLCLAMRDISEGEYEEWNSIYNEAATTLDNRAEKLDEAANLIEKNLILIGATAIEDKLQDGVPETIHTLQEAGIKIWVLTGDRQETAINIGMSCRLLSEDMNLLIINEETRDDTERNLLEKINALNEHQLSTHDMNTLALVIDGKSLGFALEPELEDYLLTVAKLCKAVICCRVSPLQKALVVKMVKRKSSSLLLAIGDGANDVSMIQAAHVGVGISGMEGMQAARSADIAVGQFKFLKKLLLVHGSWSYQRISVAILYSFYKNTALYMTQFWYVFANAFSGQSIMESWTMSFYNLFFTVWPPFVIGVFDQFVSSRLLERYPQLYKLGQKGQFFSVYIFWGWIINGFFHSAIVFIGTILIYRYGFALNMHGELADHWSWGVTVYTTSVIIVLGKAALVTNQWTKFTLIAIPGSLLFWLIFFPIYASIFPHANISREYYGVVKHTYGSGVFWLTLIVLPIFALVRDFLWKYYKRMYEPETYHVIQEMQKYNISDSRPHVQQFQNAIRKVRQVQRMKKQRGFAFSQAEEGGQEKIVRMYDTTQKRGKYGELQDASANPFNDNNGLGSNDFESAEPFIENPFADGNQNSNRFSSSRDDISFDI

[3] = target: T3, N-terminally Bad-tagged Drs2p (S. cerevisiae) (UniProt P39524)
T3 sequence (chain, biotin on the Bad tag): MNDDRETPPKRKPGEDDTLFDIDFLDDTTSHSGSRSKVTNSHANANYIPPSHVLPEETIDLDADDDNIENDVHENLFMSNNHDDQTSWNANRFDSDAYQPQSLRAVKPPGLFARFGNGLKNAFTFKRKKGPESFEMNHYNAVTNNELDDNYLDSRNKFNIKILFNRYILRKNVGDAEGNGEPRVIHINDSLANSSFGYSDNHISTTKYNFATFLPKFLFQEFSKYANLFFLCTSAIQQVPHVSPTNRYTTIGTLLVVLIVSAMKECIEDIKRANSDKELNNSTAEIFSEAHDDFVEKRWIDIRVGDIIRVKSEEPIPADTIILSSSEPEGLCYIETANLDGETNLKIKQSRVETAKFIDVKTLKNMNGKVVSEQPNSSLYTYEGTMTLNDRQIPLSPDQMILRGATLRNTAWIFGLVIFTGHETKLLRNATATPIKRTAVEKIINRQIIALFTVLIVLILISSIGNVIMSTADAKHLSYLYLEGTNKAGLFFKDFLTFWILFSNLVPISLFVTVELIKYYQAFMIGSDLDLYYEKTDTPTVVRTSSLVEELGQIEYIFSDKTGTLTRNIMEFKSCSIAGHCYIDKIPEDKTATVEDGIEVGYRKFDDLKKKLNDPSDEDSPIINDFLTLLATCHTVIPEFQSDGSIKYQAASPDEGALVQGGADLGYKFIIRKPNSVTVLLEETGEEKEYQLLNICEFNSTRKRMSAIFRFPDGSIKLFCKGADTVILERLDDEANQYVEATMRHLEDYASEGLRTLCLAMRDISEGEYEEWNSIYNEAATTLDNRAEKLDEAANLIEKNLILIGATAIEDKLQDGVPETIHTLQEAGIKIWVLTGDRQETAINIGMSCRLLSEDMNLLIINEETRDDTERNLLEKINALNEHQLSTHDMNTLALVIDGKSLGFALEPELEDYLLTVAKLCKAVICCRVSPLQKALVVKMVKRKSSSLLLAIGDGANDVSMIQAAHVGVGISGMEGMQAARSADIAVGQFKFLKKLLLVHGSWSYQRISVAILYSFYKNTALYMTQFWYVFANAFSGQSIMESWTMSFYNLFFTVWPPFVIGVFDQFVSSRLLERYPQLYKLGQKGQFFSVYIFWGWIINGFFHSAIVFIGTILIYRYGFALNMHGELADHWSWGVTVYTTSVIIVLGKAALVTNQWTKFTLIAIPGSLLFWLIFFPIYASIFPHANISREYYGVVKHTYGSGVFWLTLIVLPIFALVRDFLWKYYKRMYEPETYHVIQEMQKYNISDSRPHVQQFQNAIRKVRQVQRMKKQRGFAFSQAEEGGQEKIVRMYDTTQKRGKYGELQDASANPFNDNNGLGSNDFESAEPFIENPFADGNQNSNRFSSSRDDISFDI

- binding [1]: binds
- binding [2]: binds
- binding [3]: binds
B1: N-terminally His10-tagged Cdc50p (with TEV cleavage site) (protein, UniProt P25656 1-391)
chain: MVSLFKRGKAPPLTKEGPTSKKPPNTAFRQQRLKAWQPILSPQSVLPLLIFVACIFTPIGIGLIVSATKVQDLTIDYSHCDTKASTTAFEDIPKKYIKYHFKSKVENKPQWRLTENENGEQSCELQFEIPNDIKKSIFIYYKITNFYQNHRRYVQSFDTKQILGEPIKKDDLDTSCSPIRSREDKIIYPCGLIANSMFNDTFSQVLSGIDDTEDYNLTNKHISWSIDRHRFKTTKYNASDIVPPPNWMKKYPDGYTDENLPDIHTWEEFQVWMRTAAFPKFYKLTLKNESASLPKGKYQMNIELNYPISLFGGTKSFVLTTNGAIGGRNMSLGVLYLIVAGLCALFGIIFLVKLIFQPRAMGDHTYLNFDDEENEDYEDVHAENTTLREIL
modifications: glycosylated (Cdc50p(g))
